The nature of the test: qHTS Assay to Find Inhibitors of Chronic Active B-Cell Receptor Signaling. Particulars: ABC-DLBCL IkBa-CBG/CBR reporter, luminescence ratio (green luciferase fused to IkBa over red control in TMD8 lymphoma cells), 4 h. Summed up:
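Cell line TMD8 (human ABC DLBCL), stably expressing tet-inducible CBG68-IkBa fusion and CBR; IMDM/0.5% FBS; cpd up to 46 uM; dox induction, 4 h, 37C/5% CO2; dual luminescence; green/red ratio; MG132 control.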
On the technique in general: qHTS replaces the single test concentration by a dilution series.

Where [1] appears, read: measured here: CBR red luminescence, cell number.
Setting [2] is: measured here: IkBa-CBG green luminescence.

The values that follow come from PubChem BioAssay AID493014 (National Center for Advancing Translational Sciences (NCATS), 2011).

SMILES strings stand for the structures. This is one part of the list. Further columns of the screen follow, without active or inactive calls. Most of these compounds were active or inconclusive in the main read-out, so they are no random draw. The note in brackets gives the kind of curve behind each potency; many fits are weak.

Usually AC50 stands for the midpoint of the concentration-response curve, whichever way the signal moves.

With `COc1ccc(C2=NCCn3nc4ccccc4c32)cc1`, the AC50 under setting [1] was 0.651 µM [falling, partial curve, poor fit].
For `CCOc1ncccc1C(=O)N1CCN(c2cccc(C)c2C)CC1`, the AC50 by setting is: under setting [1], 8.91 µM [rising, partial curve]; under setting [2], 10 µM [falling, partial curve].
On to `CCOC(=O)Cc1csc(SCc2cc(=O)oc3cc(O)ccc23)n1`, for which the AC50 under setting [1] is 23.1 µM [falling, partial curve, poor fit].
As to `Cc1nc2ccccc2c2oc(C(=O)NC3CC3)cc12`, under setting [1], the AC50 is 14.6 µM [falling, single point].
Turning to `N#Cc1cc2c(nc1SCc1cccnc1)CCCC2`, the AC50 under setting [1] is 2.82 µM [falling, full curve].
Still for that read-out and setting: the same measure for `COc1cccc(C(=O)O/N=C(\N)c2ccccn2)c1OC`: 0.447 µM [falling, full curve, poor fit]; for `CCN(CC(O)CON=C1c2ccccc2-c2ccccc21)S(=O)(=O)c1ccc(Cl)cc1` (stereo not given): 29.1 µM [falling, single point]; for `c1ccc(-c2noc(-c3ccccc3-c3ccccc3)n2)cc1`: 29.1 µM [rising, single point].
`O=C(CN1CCC(n2cnc3cc(F)ccc32)CC1)Nc1ccccc1Br`: under setting [1], the AC50 was 35.5 µM [falling, single point].
`Cc1ccc(C)c(S(=O)(=O)NCc2ccc(C(=O)NCc3ccccn3)cc2)c1`: the AC50 under setting [1] is 2.06 µM [rising, partial curve, poor fit].
Turning to `Clc1ccc(-c2nnc(SCc3nc4ccccc4s3)o2)cc1`, the AC50 under setting [1] is 29.1 µM [rising, single point].
With `COc1cc(NC(=O)c2cnc(NCc3ccccc3)nc2C)cc(OC)c1OC`, the AC50 under setting [1] is 7.94 µM [falling, partial curve, poor fit].
Regarding `O=C(O)c1ccc2c(c1)C(=O)N(c1ccc(/C=C/C(=O)c3ccccc3)cc1)C2=O`, the AC50 under setting [1] is 11.2 µM [falling, partial curve].
Turning to `Cn1c2c(c(=O)n(C)c1=O)C(CC(=O)Nc1ccccc1F)C(=O)N2` (stereo not given), the AC50 under setting [1] is 0.398 µM [falling, full curve].
On to `Cc1cc(C)c(NC(=O)CS(=O)CC(=O)N2CCN(c3ccc(F)cc3)CC2)c(C)c1` (stereo not given), for which, under setting [1], the AC50 was 35.5 µM [falling, single point].
As for `COC(=O)c1cc2c(ccn2-c2ccc(F)cc2)n1CC(C)C`, the AC50 under setting [1] is 1.41 µM [rising, full curve, poor fit].
Regarding `N#CC1(Nc2cccc(Br)c2)C(=O)Nc2ccccc21` (stereo not given), under setting [1], the AC50 is 8.91 µM [falling, partial curve, poor fit].
As for `Cc1cc(=O)oc2cc(OC(C)C(=O)NCc3ccccn3)ccc12` (stereo not given), under setting [1], the AC50 was 12.6 µM [rising, single point].
Same read-out and setting: with `O=C1CCCCN1CCC(=O)N1CCCC(Nc2ccc(F)c(F)c2)C1` (stereo not given) the figure was 3.55 µM [falling, partial curve, poor fit]; with `Cc1cccc(/C=N/NC(=O)c2cccc(NC(=O)c3ccccc3)c2)n1`, 35.5 µM [falling, single point].
For the molecule `N#C/C(=N\Nc1ccc(Cl)cc1)C(=N)N1CCCCCC1`, under setting [1], the AC50 was 0.355 µM [rising, full curve, poor fit].
For the molecule `NC(=O)N1c2ccccc2CC(=O)c2ccccc21`, the AC50 under setting [1] was 35.5 µM [rising, single point].
Same read-out and setting: with `Cc1c(OCC(=O)N[C@@H](Cc2ccccc2)C(=O)O)ccc2c1oc(=O)c1ccccc12` the figure was 8.91 µM [falling, partial curve]; with `O=C(CSc1nnc(C2CC2)n1C1CC1)c1ccc(F)cc1`, 29.1 µM [falling, single point].
Take `CCOC(=O)N1CCN(C(=O)c2oc(=O)c3ccccc3c2-c2ccc(C)cc2)CC1`: the AC50 under setting [1] was 35.5 µM [falling, single point].
For `Cc1ccc(Cl)cc1NC(=O)C1CC1c1ccccc1` (stereo not given), the AC50 under setting [1] is 11.2 µM [rising, partial curve, poor fit].
On the same count and under the same terms, with `O=C(Nc1ccc(-c2cnco2)cc1)c1ccc(F)cc1F` the figure was 12.6 µM [falling, partial curve]; with `CCOc1ccc(-c2nnc(-c3ccccc3)o2)cc1`, 10.3 µM [falling, partial curve, poor fit]; with `O=C(COc1ccc(Br)cc1Br)NC1CCCC1`, 0.562 µM [rising, full curve, poor fit].
On to `COc1cccc(OCC(=O)NC2CC(=O)N(c3cccc(OC)c3)C2)c1` (stereo not given), for which the AC50 under setting [1] was 2.82 µM [rising, full curve, poor fit].
Consider `COc1cccc2cc(C(=O)CS(=O)(=O)c3ccc(C)cc3)c(=O)oc12`, for which the AC50 under setting [1] was 1.26 µM [rising, full curve, poor fit].
In the case of `Cc1ccc2nc(NC(=O)C3CCCN(S(=O)(=O)c4cnc[nH]4)C3)sc2c1` (stereo not given), the AC50 under setting [1] is 6.51 µM [falling, partial curve].
As to `Cc1ccccc1N(C(=O)c1csnn1)C(C(=O)NC(C)(C)C)c1ccncc1` (stereo not given), under setting [1], the AC50 is 6.31 µM [rising, single point].
Take `Oc1ccccc1C1CCCCC1c1ccccc1` (stereo not given): the AC50 under setting [1] was 15.8 µM [rising, partial curve, poor fit].
With `Cc1ccc2nc(N(CCCN(C)C)C(=O)c3ccc4ncsc4c3)sc2c1`, the AC50 under setting [1] was 20 µM [falling, partial curve, poor fit].
For the molecule `O=C(O)c1ccc(N/N=C/c2cn(Cc3ccccc3F)c3ccccc23)cc1`, the AC50 under setting [2] is 0.631 µM [rising, full curve, poor fit].
As to `COc1ccccc1NC1=C(Cl)C(=O)OC1OC(=O)c1ccco1` (stereo not given), the AC50 under setting [1] is 11.2 µM [falling, partial curve, poor fit].
Take `CCOC(=O)c1c(C)n(C)c2cc(CN(C)C)c(O)c(S(=O)(=O)c3ccccc3)c12`: the AC50 under setting [1] was 35.5 µM [falling, single point].
On to `Cc1ccc(C2NC(=NCc3ccccc3)Nc3nc(C)cc(=O)n32)cc1` (stereo not given), for which, under setting [1], the AC50 was 10 µM [falling, partial curve].
Consider `CCOc1ccc(/C=N/NC(=O)Nc2ccccc2)cc1`, for which, under setting [1], the AC50 was 1.58 µM [rising, partial curve, poor fit].
Regarding `Cc1ccc(C(=O)CN(C(=O)c2ccc(Cl)c(Cl)c2)N2C(=O)C3CCCCC3C2=O)cc1C` (stereo not given), the AC50 under setting [1] was 4.11 µM [rising, partial curve, poor fit].
Turning to `CS(=O)(=O)N1CCN(C(=O)c2ccc(-c3ccccc3)cc2)CC1`, the AC50 under setting [1] is 4.11 µM [falling, full curve].
With `Cc1ccc(NC(=O)CSC2=NCCN2)cc1`, the AC50 under setting [1] is 20.6 µM [rising, partial curve].
Consider `O=C(Cc1cccs1)Nc1ccc(-c2nc3ccccc3[nH]2)cc1`, for which the AC50 under setting [1] is 7.94 µM [falling, partial curve, poor fit].
For `CCC(=O)Nc1nnc(Sc2ccc(N(C)C)cc2)s1`, the AC50 under setting [1] was 2.82 µM [rising, full curve].
Regarding `CCC1=C(OC(=O)N(CC)CC)N2C(=O)OC(=NCCc3c[nH]c4ccccc34)[C@]2(C)[C@H]2C1=CC[C@H]1C(=O)N(CC(=O)OC)C(=O)[C@H]12`, the AC50 under setting [1] was 31.6 µM [falling, single point].
Turning to `COC(=O)c1sccc1-c1ccc(C(=O)Nc2cccnc2)o1`, the AC50 under setting [1] was 1.26 µM [falling, full curve, poor fit].
Turning to `O=C(CCc1nnc(-c2ccc(-c3ccccc3)cc2)o1)NCCc1ccccn1`, the AC50 under setting [1] was 11.2 µM [falling, partial curve, poor fit].
Same read-out and setting: with `NS(=O)(=O)c1ccc(CCNC(=O)c2ccccc2Cc2ccccc2)cc1` the figure was 10 µM [falling, partial curve, poor fit]; with `CC(=O)n1cc(/C=N/NC(=O)c2cccc(O)c2)c2ccccc21`, 11.2 µM [falling, partial curve, poor fit]; with `O=C1N=c2ccccc2=C1c1sc(=S)n(-c2ccc(O)cc2)c1O`, 20 µM [falling, single point].
As for `COC(=O)CSc1nc(C)c2c(n1)CCCC2`, the AC50 under setting [1] was 11.2 µM [rising, single point].
Still for that read-out and setting: with `COc1cc(OC)cc(C(=O)Nc2ccc3nc4n(c(=O)c3c2)CCCCC4)c1` the figure was 3.98 µM [falling, partial curve]; with `COc1cccc(/C=N/NC(=O)CN(CCc2ccccc2)S(=O)(=O)c2ccc(NC(C)=O)cc2)c1`, 1.3 µM [rising, partial curve, poor fit]; with `Fc1ccccc1COc1ccc(Br)cc1CNCC1CCCO1` (stereo not given), 25.1 µM [falling, single point].
For `O=C(NCc1ccccc1)C(c1cccnc1)N(C(=O)c1ccccn1)c1cccc(F)c1` (stereo not given), the AC50 under setting [1] was 7.94 µM [rising, partial curve, poor fit].
Regarding `Cc1cc(N)n(-c2ccc(C(=O)O)cc2)n1`, the AC50 under setting [1] was 7.08 µM [falling, full curve, poor fit].
On the same count and under the same terms, with `COC(=O)C1=C(C)N(Cc2cccnc2)C(=O)/C1=C\c1sccc1C` the figure was 35.5 µM [falling, single point].
For the molecule `O=C1CCc2cc(NS(=O)(=O)c3ccccc3)cc3c2N1CCC3`, the AC50 under setting [1] is 9.2 µM [falling, partial curve, poor fit].
On to `Cc1ccc(NC(=O)C2CCN(c3ncnc4c3nc3n4CCCCC3)CC2)cc1Cl`, for which, under setting [1], the AC50 was 12.6 µM [rising, single point].
Take `Cc1ccc(NC(=O)COC(=O)c2cc(=O)c3ccccc3o2)c(Br)c1`: under setting [1], the AC50 was 0.164 µM [rising, full curve, poor fit].
Regarding `Cc1ccc(NNC(=O)c2c(C)noc2C)cc1Cl`, the AC50 under setting [1] is 35.5 µM [falling, single point].
On the same count and under the same terms, with `C/C(=N\NC(=O)c1ccccc1O)c1cccc(NC(=O)c2ccccc2)c1` the figure was 5.01 µM [falling, partial curve].
On to `CC(C)c1ccc(OCc2ccc(C(=O)O)o2)cc1`, for which the AC50 under setting [1] is 11.2 µM [falling, partial curve].
